Results are given in words; binding and its absence hold for the method and conditions named.
B1: CYRI-B (FAM49B) from Rhincodon typus (whale shark), native protein (protein, UniProt A0A7M4DUF3 1-325)
chain: SMGNLIKVLTRDIDHNASHFFLDFENAQPTEAEREIFNQVNVVLKDAEGILNDLQSYRGAGHEIREAIQHPNDENLQEKAWSAVCPLVGKLKKFYEFSQRLEAALHGLLGALTSTPYSPTQHLEREQALAKQFAEILHFTLRFDELKMTNPAIQNDFSYYRRTLSRMRINNVPAEGENEVNNELANRMSLFYAEATPMLKTLSDATTKFVSDNKSLPIENTTDCLSTMASVCRVMLETPEYRSRFASEETVSFCLRVMVGVIILYDHVHPVGAFAKTSKIDMKGCIKVLKDQPPNSVEGLLNALRYTTKHLNDETTSKQIKTMLQ
B2: Selenomethionine (SeMet)-derivatized CYRI-B (FAM49B) from Rhincodon typus (protein, UniProt A0A7M4DUF3 1-325)
chain: B1 chain
modifications: selenomethionine (SeMet-derivatized)

Tests used:
[1] = biological target: CYRI-B (FAM49B) from Rhincodon typus (whale shark), native protein (Rhincodon typus (whale shark)); assay: native gel or EMSA; 7% native PAGE under non-reducing conditions, Instant Blue stain; single band; both purified
[2] = biological target: CYRI-B (FAM49B) from Rhincodon typus (whale shark), native protein (Rhincodon typus (whale shark)); assay: SEC; analytical SEC, Superdex 75 10/300 GL, room temperature, 20 mM Tris pH 7.5, 150 mM NaCl, 5 mM beta-mercaptoethanol; 0.5 mg native or 0.3 mg SeMet protein in 100 µl; single peak close to 30 kDa; both purified
[3] = biological target: Selenomethionine (SeMet)-derivatized CYRI-B (FAM49B) from Rhincodon typus (Rhincodon typus (whale shark)); assay: native gel or EMSA; 7% native PAGE under non-reducing conditions, Instant Blue stain; single band; both purified
[4] = biological target: Selenomethionine (SeMet)-derivatized CYRI-B (FAM49B) from Rhincodon typus (Rhincodon typus (whale shark)); assay: SEC; analytical SEC, Superdex 75 10/300 GL, room temperature, 20 mM Tris pH 7.5, 150 mM NaCl, 5 mM beta-mercaptoethanol; 0.5 mg native or 0.3 mg SeMet protein in 100 µl; single peak close to 30 kDa; both purified

Binder | binding [1] | binding [2] | binding [3] | binding [4]
B1 | no binding | no binding (tested: 0.5 mg in 100 µl applied) | – | –
B2 | – | – | no binding | no binding (tested: 0.3 mg in 100 µl applied)

Source: article PMC7543656
